Measurements: patent publication US20070206845A1, “Granularity analysis in cellular phenotypes” (Cytokinetics, Inc., priority 2006, published 2007)

Test system: hepatocytes

CCCCc1oc2ccccc2c1C(=O)c1cc(I)c(OCCN(CC)CC)c(I)c1 [Amiodarone]
number of granules per cell (averaged over a population of cells) versus drug concentration (FIG. 6 dose response curves): most significant response
total area of the granules within a population of cells (on a per cell basis) versus drug concentration (FIG. 7 dose response curves): the same response is visible
